Test results as given in publication PMC9861611.
No constants are given. Whether binding was seen depends on the method and setting. In cells and extracts the contact can be indirect. Some results given as binding are weak or reduced against the parent protein; the word gives no strength. Tags and fused reporters may be left off the sequences shown.

Target: T1, AGIA-FLAG-KCNB1 (human) (UniProt Q14721)
T1 sequence: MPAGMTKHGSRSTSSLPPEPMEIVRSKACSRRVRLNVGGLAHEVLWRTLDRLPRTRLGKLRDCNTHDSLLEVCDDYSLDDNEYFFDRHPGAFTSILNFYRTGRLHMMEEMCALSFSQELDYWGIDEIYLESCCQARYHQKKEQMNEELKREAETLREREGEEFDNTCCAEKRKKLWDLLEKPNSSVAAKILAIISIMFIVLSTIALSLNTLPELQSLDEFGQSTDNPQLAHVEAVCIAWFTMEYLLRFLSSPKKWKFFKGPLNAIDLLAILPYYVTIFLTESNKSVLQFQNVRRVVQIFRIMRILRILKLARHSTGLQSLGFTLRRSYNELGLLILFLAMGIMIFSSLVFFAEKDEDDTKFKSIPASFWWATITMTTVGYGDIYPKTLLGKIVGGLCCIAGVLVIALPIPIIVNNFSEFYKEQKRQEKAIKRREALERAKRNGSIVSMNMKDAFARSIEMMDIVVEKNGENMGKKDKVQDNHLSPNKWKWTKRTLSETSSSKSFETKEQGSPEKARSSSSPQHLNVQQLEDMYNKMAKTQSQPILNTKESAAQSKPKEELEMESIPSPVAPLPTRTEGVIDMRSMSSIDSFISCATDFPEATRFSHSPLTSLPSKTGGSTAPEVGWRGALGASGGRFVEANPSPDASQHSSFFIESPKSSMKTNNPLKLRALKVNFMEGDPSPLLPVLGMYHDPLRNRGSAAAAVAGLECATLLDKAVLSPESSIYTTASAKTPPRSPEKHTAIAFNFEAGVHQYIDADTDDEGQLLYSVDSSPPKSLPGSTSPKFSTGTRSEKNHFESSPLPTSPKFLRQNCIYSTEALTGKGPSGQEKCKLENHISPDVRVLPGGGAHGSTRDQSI
Experiment: co-IP; AGIA-FLAG-KCNB1 and FLAG-KCNS3 co-synthesized in a wheat cell-free system with asolectin liposomes; washed proteoliposomes solubilized with 1% n-dodecyl-β-D-maltoside, 0.2% cholesteryl hemisuccinate, 20 mM Hepes-NaOH pH 7.2, 150 mM NaCl; IP with anti-AGIA monoclonal antibody on Dynabeads Protein G, 4 °C, 1 h; Western blot with anti-DYKDDDDK antibody

B1: FLAG-KCNS3 (protein, UniProt Q9BQ31 1-491)
chain: MVFGEFFHRPGQDEELVNLNVGGFKQSVDQSTLLRFPHTRLGKLLTCHSEEAILELCDDYSVADKEYYFDRNPSLFRYVLNFYYTGKLHVMEELCVFSFCQEIEYWGINELFIDSCCSNRYQERKEENHEKDWDQKSHDVSTDSSFEESSLFEKELEKFDTLRFGQLRKKIWIRMENPAYCLSAKLIAISSLSVVLASIVAMCVHSMSEFQNEDGEVDDPVLEGVEIACIAWFTGELAVRLAAAPCQKKFWKNPLNIIDFVSIIPFYATLAVDTKEEESEDIENMGKVVQILRLMRIFRILKLARHSVGLRSLGATLRHSYHEVGLLLLFLSVGISIFSVLIYSVEKDDHTSSLTSIPICWWWATISMTTVGYGDTHPVTLAGKLIASTCIICGILVVALPITIIFNKFSKYYQKQKDIDVDQCSEDAPEKCHELPYFNIRDIYAQRMHTFITSLSSVGIVVSDPDSTDASSIEDNEDICNTTSLENCTAK
With B1 the binding was “binds”.
